PubChem BioAssay AID652243 | Drosophila RNAi Screening Center | 2013

Screen: 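Knock-downs that decrease or increase androgen receptor reporter signal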 (primary screen)
Cells: Drosophila S2R+ cells
Reagents: long dsRNA against Drosophila genes
Time to read-out: 72 h (48 h, then 24 h hormone)
Treatment: synthetic androgen R1881 at 10 nM for 24 h
Detection: 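Per-well raw luminescence of the androgen-driven firefly reporter and of the Renilla control, two replicates each, without normalisation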
Reading the numbers: firefly reporter light: higher = more light from androgen-responsive reporter; Renilla control light: higher = more constitutive control signal (cell number, transfection)
Call rule: 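Across duplicate plates, a knock-down whose log firefly/Renilla ratio shifted a set fold down or up from the GFP/LacZ control mean was a hit; the downward cut appears as both 1.5 and 3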
Meaning of the calls: active = hit: reporter lowered or raised; inactive = no hit
The deposit covers about 24,000 reagents; this is a random part of those that have a named target and a result. In the full data, 246 (1%) got an active call. 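Plates not normalised; calls are printed but the firefly/Renilla ratio behind them is not deposited; fold cut for lowering reported inconsistently.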 Raw values are not corrected between plates. Reagents against one gene are numbered here. No sequences are given here. The record does not give: the amount of reagent.

| Gene | reagent no. | firefly reporter light, replicate 1 | firefly reporter light, replicate 2 | Renilla control light, replicate 1 | Renilla control light, replicate 2 | activity call |
| --- | --- | --- | --- | --- | --- | --- |
| edin (elevated during infection) | 1 | 1.61e5 | 1.43e5 | 4.74e5 | 4.85e5 | inactive |
| Jhbp3 (Juvenile hormone binding protein 3) | 1 | 75692 | 65654 | 1.64e6 | 1.56e6 | inactive |
| CG7094 | 1 | 1.21e5 | 1.24e5 | 1.01e6 | 1.08e6 | inactive |
| CG7094 | 2 | 3.54e5 | 3.87e5 | 1.02e6 | 1.18e6 | inactive |
| CG9240 | 1 | 6.27e5 | 4.53e5 | 3.20e6 | 2.36e6 | inactive |
| CG17242 | 1 | 1.26e5 | 92332 | 8.24e5 | 5.99e5 | inactive |
| pwn (pawn) | 1 | 4.63e5 | 7.98e5 | 1.29e6 | 1.83e6 | inactive |
| pwn (pawn) | 2 | 2.76e5 | 3.13e5 | 4.25e5 | 3.99e5 | inactive |
| CG15014 | 1 | 1.45e5 | 1.14e5 | 1.69e6 | 1.19e6 | inactive |
| CG15014 | 2 | 5.42e5 | 6.80e5 | 8.88e5 | 8.06e5 | inactive |
| CG8870 | 1 | 87605 | 1.63e5 | 1.20e6 | 1.80e6 | inactive |
| CG7218 | 1 | 83750 | 52553 | 5.06e5 | 6.85e5 | inactive |
| CG7218 | 2 | 2.40e5 | 2.96e5 | 4.27e5 | 7.88e5 | inactive |
| CG12025 | 1 | 86933 | 68948 | 1.07e6 | 1.10e6 | inactive |
| Vps16A (Vacuolar protein sorting 16A) | 1 | 74510 | 1.79e5 | 1.58e6 | 2.03e6 | inactive |
| rasp | 1 | 98950 | 92242 | 1.18e6 | 1.47e6 | inactive |
| CG42748 | 1 | 2.71e5 | 1.15e5 | 1.70e6 | 1.03e6 | inactive |
| CG42748 | 2 | 1.02e6 | 8.61e5 | 1.91e6 | 2.00e6 | inactive |
| CG42748 | 3 | 1.57e5 | 1.74e5 | 1.22e6 | 1.36e6 | inactive |
| CG42748 | 4 | 2.18e5 | 3.77e5 | 6.47e5 | 1.00e6 | inactive |
| CG42445 | 1 | 8.19e5 | 5.61e5 | 1.72e6 | 1.49e6 | inactive |
| CG14764 | 1 | 2.29e5 | 2.25e5 | 3.83e5 | 4.72e5 | inactive |
| CG14764 | 2 | 1.40e6 | 8.29e5 | 2.03e6 | 1.69e6 | inactive |
| CG14764 | 3 | 2.89e5 | 2.39e5 | 1.76e6 | 1.60e6 | inactive |
| temp (tempura) | 1 | 62289 | 1.10e5 | 6.16e5 | 7.31e5 | inactive |
| Or47b (Odorant receptor 47b) | 1 | 1.48e5 | 1.53e5 | 8.67e5 | 1.05e6 | inactive |
| Agxt (Alanine-glyoxylate aminotransferase) | 1 | 88366 | 64049 | 7.23e5 | 5.16e5 | inactive |
| Agxt (Alanine-glyoxylate aminotransferase) | 2 | 3.52e5 | 3.13e5 | 8.23e5 | 7.17e5 | inactive |
| exex (extra-extra) | 1 | 1.03e5 | 79517 | 1.51e6 | 9.92e5 | inactive |
| exex (extra-extra) | 2 | 7.72e5 | 4.44e5 | 6.61e5 | 5.12e5 | inactive |
| CG5823 | 1 | 40835 | 98502 | 5.85e5 | 7.81e5 | inactive |
| Tmtc4 (Transmembrane O-mannosyltransferase targeting cadherins 4) | 1 | 1.44e5 | 1.90e5 | 2.19e6 | 2.62e6 | inactive |
| Psa (Puromycin sensitive aminopeptidase) | 1 | 1.55e6 | 1.91e6 | 1.28e6 | 1.47e6 | inactive |
| CG8526 | 1 | 1.61e5 | 1.21e5 | 1.99e6 | 1.80e6 | inactive |
| CG8526 | 2 | 4.06e5 | 4.85e5 | 5.82e5 | 5.79e5 | inactive |
| CG15820 | 1 | 7.75e5 | 7.58e5 | 1.76e6 | 1.26e6 | inactive |
| CG15820 | 2 | 1.04e6 | 6.02e5 | 3.47e6 | 1.32e6 | inactive |
| PIP4K (Phosphatidylinositol 5-phosphate 4-kinase) | 1 | 3.28e5 | 3.25e5 | 4.42e6 | 3.48e6 | inactive |
| PIP4K (Phosphatidylinositol 5-phosphate 4-kinase) | 2 | – | – | – | – | inactive |
| PIP4K (Phosphatidylinositol 5-phosphate 4-kinase) | 3 | – | – | – | – | inactive |
| CG3517 | 1 | 2.45e5 | 2.06e5 | 3.38e6 | 2.57e6 | inactive |
| CG3517 | 2 | 4.17e5 | 4.97e5 | 5.85e5 | 4.91e5 | inactive |
| CG1698 | 1 | 1.16e6 | 8.18e5 | 1.95e6 | 1.63e6 | inactive |
| CG1698 | 2 | 7.34e5 | 7.72e5 | 7.57e5 | 9.51e5 | inactive |
| B9d1 | 1 | 1.79e5 | 2.17e5 | 2.17e6 | 2.18e6 | inactive |
| CG13627 | 1 | 1.74e5 | 2.20e5 | 2.43e6 | 2.42e6 | inactive |
| CG34169 | 1 | 8.56e5 | 8.81e5 | 1.44e6 | 1.83e6 | inactive |
| atlas | 1 | 2.67e5 | 2.46e5 | 1.41e6 | 1.35e6 | inactive |
| mRpL42 (mitochondrial ribosomal protein L42) | 1 | 2.24e5 | 1.42e5 | 1.35e6 | 9.91e5 | inactive |
| alpha-Est8 (alpha-Esterase-8) | 1 | 59939 | 59820 | 1.98e6 | 1.08e6 | inactive |
| ND-30 (NADH dehydrogenase (ubiquinone) 30 kDa subunit) | 1 | 1.22e6 | 8.90e5 | 1.81e6 | 1.85e6 | inactive |
| pelo (pelota) | 1 | 8.96e5 | 1.02e6 | 1.51e6 | 1.29e6 | inactive |
| YME1L (YME1 like ATPase) | 1 | 4.34e5 | 5.33e5 | 7.02e5 | 5.23e5 | inactive |
| Golgin245 (Golgin-245) | 1 | 7.80e5 | 6.96e5 | 9.76e5 | 1.04e6 | inactive |
| Golgin245 (Golgin-245) | 2 | 9.22e5 | 8.18e5 | 1.54e6 | 1.20e6 | inactive |
| Golgin245 (Golgin-245) | 3 | 7.30e5 | 4.61e5 | 1.46e6 | 1.62e6 | inactive |
| CG10222 | 1 | 3.81e5 | 2.30e5 | 3.58e6 | 2.75e6 | inactive |
| CG10222 | 2 | 5.13e5 | 6.62e5 | 1.44e6 | 1.20e6 | inactive |
| AP-1-2beta (Adaptor Protein complex 1/2, beta subunit) | 1 | 97792 | 1.62e5 | 3.47e5 | 3.09e5 | inactive |
| AP-1-2beta (Adaptor Protein complex 1/2, beta subunit) | 2 | 7.63e5 | 8.62e5 | 8.10e5 | 9.15e5 | inactive |
| CG32563 | 1 | 4.26e5 | 2.58e5 | 3.43e6 | 1.81e6 | inactive |
| CG32563 | 2 | 4.34e5 | 4.68e5 | 8.72e5 | 1.59e6 | inactive |
| CG15362 | 1 | 1.18e5 | 1.31e5 | 9.97e5 | 1.06e6 | inactive |
| CG8617 | 1 | 58379 | 60227 | 9.57e5 | 9.57e5 | inactive |
| y (yellow) | 1 | 3.08e5 | 5.17e5 | 3.79e6 | 3.09e6 | inactive |
| y (yellow) | 2 | 4.54e5 | 4.59e5 | 1.79e6 | 2.38e6 | inactive |
| hpo (hippo) | 1 | 4.76e5 | 5.41e5 | 1.03e6 | 1.29e6 | inactive |
| hpo (hippo) | 2 | – | – | – | – | inactive |
| hpo (hippo) | 3 | – | – | – | – | inactive |
| CG12853 | 1 | 1.02e6 | 1.01e6 | 1.83e6 | 1.67e6 | inactive |
| CG12853 | 2 | 2.99e5 | 3.75e5 | 7.34e5 | 7.82e5 | inactive |
| GstT3 (Glutathione S transferase T3) | 1 | 2.63e5 | 2.12e5 | 8.99e5 | 5.38e5 | inactive |
| Vps24 (Vacuolar protein sorting 24) | 1 | 2.42e5 | 3.02e5 | 2.15e6 | 2.65e6 | inactive |
| Vps24 (Vacuolar protein sorting 24) | 2 | 5.42e5 | 5.95e5 | 1.30e6 | 9.84e5 | inactive |
